# Record: PubChem BioAssay AID1224826 (NIAID, 2016)
# Screen: 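Regulators of Tlr4 signalling leading to Tnf-alpha expression in macrophages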 (primary screen)
# Cell system: RAW264.7 G9 macrophages from mouse bearing reporters for p65 (GFP) and the Tnf promoter (mCherry)
# Knock-down reagent: siRNA pool against mouse genes, 100 nM
# Timing: 16 h of LPS stimulation, after 2 days of siRNA transfection
# Treatment: bacterial lipopolysaccharide (Salmonella minnesota R595), 10 ng/ml
# Detection: 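Imaged Tnf reporter mCherry in nuclei, minus background, normalised per plate to the median and expressed as robust z-scores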
# Scale: Tnf reporter robust z-score: higher = stronger Tnf promoter reporter signal after LPS; Tnf reporter intensity: higher = stronger Tnf promoter reporter signal
# Rule for the call: 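Called active when robust z-score is at most -1.3, matching the median of the Tlr4 knock-down control, or over 3; control wells and wells with under 50 cells never active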
# Meaning of the calls: active = Tnf reporter clearly lowered or raised; inactive = no clear change in Tnf reporter
# The whole screen tested about 17,000 reagents; this is an unselected part. About 1,110 of all reagents (6.6%) were called active. 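Active means lowered or raised reporter signal; replicate intensities are raw and not normalised per plate.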 Unmarked entries are inactive.
gene symbol,Tnf reporter robust z-score,fewer than 50 cells in well,"Tnf reporter intensity, replicate 1","Tnf reporter intensity, replicate 2"
Lefty2,1.58,enough cells in well,355,350
Irf2bpl,3.55 (active),enough cells in well,382,329
Afm,0.13,enough cells in well,199,212
Gsc,0.81,enough cells in well,301,218
Aven,-1.42 (active),enough cells in well,74.1,78.8
Tdrd6,-0.49,enough cells in well,87.2,87.1
Bbs2,-1.02,enough cells in well,82.5,124
Mrps11,-1.04,enough cells in well,201,108
Vmn1r177,1.36,enough cells in well,137,160
Pola1,0.58,enough cells in well,341,189
Psme3,-1.94 (active),enough cells in well,52.8,36.7
Pnmt,0.9,enough cells in well,355,221
Zc3h12a,-1.18,enough cells in well,122,127
Kif1a,-0.16,enough cells in well,238,134
Dlx5,0.39,enough cells in well,265,230
Slc25a22,0.58,enough cells in well,121,75.9
Washc5,-0.01,enough cells in well,188,113
Runx2,-2 (active),enough cells in well,48,35.3
Atf1,1,enough cells in well,176,242
Lhx9,1.43,enough cells in well,288,212
Agpat4,1.43,enough cells in well,324,260
Mcoln3,-0.59,enough cells in well,213,164
Dnmt3b,-0.27,enough cells in well,199,198
Pde8b,2.15,enough cells in well,214,329
Kmt5c,0.36,enough cells in well,186,285
Slc35b1,1.17,enough cells in well,164,108
Or6c69,1.27,enough cells in well,95.5,169

Continued (4 carried over from the part before).
gene symbol,Tnf reporter robust z-score,fewer than 50 cells in well,"Tnf reporter intensity, replicate 1","Tnf reporter intensity, replicate 2"
Pde8b,2.15,enough cells in well,214,329
Kmt5c,0.36,enough cells in well,186,285
Slc35b1,1.17,enough cells in well,164,108
Or6c69,1.27,enough cells in well,95.5,169
Plin4,-0.59,enough cells in well,129,75.5
Ubxn6,1.04,enough cells in well,133,142
Spart,0.11,enough cells in well,276,234
Or6ae1,,fewer than 50 cells per well; well left out of calls,84,33
Nnat,1.46,enough cells in well,345,171
Eno2,-0.49,enough cells in well,188,196
Flcn,2,enough cells in well,242,272
1810043J12RIK,,fewer than 50 cells per well; well left out of calls,90.8,43
Smc2,,fewer than 50 cells per well; well left out of calls,0,65.8
Or5b97,0.7,enough cells in well,204,162
Ccdc80,0.69,enough cells in well,279,95.3
Rsph9,0.38,enough cells in well,240,52.5
Or11l3,0.16,enough cells in well,197,122
Zfp697,0.54,enough cells in well,275,191
Ros1,-0.72,enough cells in well,142,128
Spink12,0.55,enough cells in well,240,195
Adgrb2,0.26,enough cells in well,249,295
Gorasp2,0.29,enough cells in well,270,179
Usp43,6.25 (active),enough cells in well,323,315
Rfxank,-0.34,enough cells in well,277,180
Aknad1,0.19,enough cells in well,219,71.6
Dntt,0.42,enough cells in well,270,230
Ms4a7,-0.29,enough cells in well,123,164
Myo1h,-0.77,enough cells in well,159,83.8
Lsm8,-2.06 (active),enough cells in well,63.4,26.1
Fgf23,0.01,enough cells in well,249,245
Irx3,-1.33 (active),enough cells in well,122,61.8
Atp10d,0.57,enough cells in well,237,164
Clcn2,-0.36,enough cells in well,260,141
Fbxo25,-0.01,enough cells in well,237,220
Esx1,-0.83,enough cells in well,160,111
Bcl2a1d,-0.73,enough cells in well,92,145
Or4k49,-0.94,enough cells in well,128,38.3
Gas5,-0.96,enough cells in well,163,103
Or10ak16,0.42,enough cells in well,239,115
Usp48,0.92,enough cells in well,225,46.6
Vma12,-0.67,enough cells in well,148,155
Rhd,0.47,enough cells in well,327,258
Anapc5,0.26,enough cells in well,186,181
Osbpl8,1.24,enough cells in well,223,188
Tmem132c,,fewer than 50 cells per well; well left out of calls,152,78.4
Teddm3,,fewer than 50 cells per well; well left out of calls,95.1,114
Dynlt4,,fewer than 50 cells per well; well left out of calls,120,58.5
Zfp638,0.13,enough cells in well,243,118
Hsfy2,-0.49,enough cells in well,132,131
Cmtm3,0.79,enough cells in well,174,270
Tmem116,-1.87 (active),enough cells in well,48.9,48
D030022P06RIK,-0.3,enough cells in well,191,132
